# Test results: paper PMC11963297
# By UniProt entry, the sequences of proteins in these tests, tags left out. Where a name states a change or a piece, a line headed by the entry shows the natural chain unless it says otherwise.
# UniProt P23258: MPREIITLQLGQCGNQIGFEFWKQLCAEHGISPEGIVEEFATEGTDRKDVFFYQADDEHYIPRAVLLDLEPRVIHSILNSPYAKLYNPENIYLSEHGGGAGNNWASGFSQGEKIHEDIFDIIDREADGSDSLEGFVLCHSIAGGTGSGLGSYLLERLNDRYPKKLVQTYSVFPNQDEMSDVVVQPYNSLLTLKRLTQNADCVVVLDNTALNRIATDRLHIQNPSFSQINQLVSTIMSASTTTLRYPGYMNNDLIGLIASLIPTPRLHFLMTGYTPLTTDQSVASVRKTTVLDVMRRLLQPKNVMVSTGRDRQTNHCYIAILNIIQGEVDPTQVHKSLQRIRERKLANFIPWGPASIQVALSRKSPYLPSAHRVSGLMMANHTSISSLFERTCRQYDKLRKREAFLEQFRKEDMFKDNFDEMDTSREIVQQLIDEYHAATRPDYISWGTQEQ
# B1: C-terminally mNeonGreen-tagged human GIT1, transcript variant 1 (GIT1-NG) (protein, UniProt Q9Y2X7-3 1-770)
# chain: MSRKGPRAEVCADCSAPDPGWASISRGVLVCDECCSVHRSLGRHISIVKHLRHSAWPPTLLQMVHTLASNGANSIWEHSLLDPAQVQSGRRKANPQDKVHPIKSEFIRAKYQMLAFVHKLPCRDDDGVTAKDLSKQLHSSVRTGNLETCLRLLSLGAQANFFHPEKGTTPLHVAAKAGQTLQAELLVVYGADPGSPDVNGRTPIDYARQAGHHELAERLVECQYELTDRLAFYLCGRKPDHKNGHYIIPQMADRSRQKCMSQSLDLSELAKAAKKKLQALSNRLFEELAMDVYDEVDRRENDAVWLATQNHSTLVTERSAVPFLPVNPEYSATRNQGRQKLARFNAREFATLIIDILSEAKRRQQGKSLSSPTDNLELSLRSQSDLDDQHDYDSVASDEDTDQEPLRSTGATRSNRARSMDSSDLSDGAVTLQEYLELKKALATSEAKVQQLMKVNSSLSDELRRLQREIHKLQAENLQLRQPPGPVPTPPLPSERAEHTPMAPGGSTHRRDRQAFSMYEPGSALKPFGGPPGDELTTRLQPFHSTELEDDAIYSVHVPAGLYRIRKGVSASAVPFTPSSPLLSCSQEGSRHTSKLSRHGSGADSDYENTQSGDPLLGLEGKRFLELGKEEDFHPELESLDGDLDPGLPSTEDVILKTEQVTKNIQELLRAAQEFKHDSFVPCSEKIHLAVTEMASLFPKRPALEPVRSSLRLLNASAYRLQSECRKTVPPEPGAPVDFQLLTQQVIQCAYDIAKAAKQLVTITTREKKQ
# B2: C-terminally mNeonGreen-tagged human GIT2, transcript variant 1 (GIT2-NG) (protein, UniProt Q14161-1 1-759)
# chain: MSKRLRSSEVCADCSGPDPSWASVNRGTFLCDECCSVHRSLGRHISQVRHLKHTPWPPTLLQMVETLYNNGANSIWEHSLLDPASIMSGRRKANPQDKVHPNKAEFIRAKYQMLAFVHRLPCRDDDSVTAKDLSKQLHSSVRTGNLETCLRLLSLGAQANFFHPEKGNTPLHVASKAGQILQAELLAVYGADPGTQDSSGKTPVDYARQGGHHELAERLVEIQYELTDRLAFYLCGRKPDHKNGQHFIIPQMADSSLDLSELAKAAKKKLQSLSNHLFEELAMDVYDEVDRRETDAVWLATQNHSALVTETTVVPFLPVNPEYSSTRNQGRQKLARFNAHEFATLVIDILSDAKRRQQGSSLSGSKDNVELILKTINNQHSVESQDNDQPDYDSVASDEDTDLETTASKTNRQKSLDSDLSDGPVTVQEFMEVKNALVASEAKIQQLMKVNNNLSDELRIMQKKLQTLQSENSNLRKQATTNVYQVQTGSEYTDTSNHSSLKRRPSARGSRPMSMYETGSGQKPYLPMGEASRPEESRMRLQPFPAHIGRSALVTSSSSLPSFPSTLSWSRDESARRASRLEKQNSTPESDYDNTPNDMEPDGMGSSRKGRQRSMVWPGDGLVPDTAEPHVAPSPTLPSTEDVIRKTEQITKNIQELLRAAQENKHDSYIPCSERIHVAVTEMAALFPKKPKSDMVRTSLRLLTSSAYRLQSECKKTLPGDPGSPTDVQLVTQQVIQCAYDIAKAAKQLVTITTKENNN
# B3: G protein-coupled receptor kinase-interacting protein 1 (GIT1), endogenous (protein, UniProt Q9Y2X7-3 1-770)
# chain: B1 chain
# B4: G protein-coupled receptor kinase-interacting protein 2 (GIT2), endogenous (protein, UniProt Q14161 1-759)
# chain: B2 chain
# Columns and labels:
# [1] = target: γ-tubulin, endogenous (human (endogenous in U-251 MG)) (UniProt P23258); assay: co-IP; whole-cell extracts of cells expressing GIT1-NG, GIT2-NG or NG alone; precipitation with anti-NG Ab or, reciprocally, anti-γ-tubulin Ab on protein A beads; immunoblot
# [2] = target: N-terminally GST-tagged full-length human γ-tubulin (GST-γ-tubulin) (human) (UniProt P23258); assay: pull-down; GST-fusion proteins or GST alone immobilised on Glutathione-Sepharose and incubated with whole-cell extracts of U-251 MG cells; immunoblot; only the target purified
# [3] = target: γ-tubulin, endogenous (human (endogenous in U-251 MG)) (UniProt P23258); assay: co-IP; whole-cell extracts of U-251 MG cells (HEPES buffer with 1% NP-40, protease and phosphatase inhibitors) incubated with protein A beads preloaded with rabbit Ab to GIT1, GIT2 or PKCα or mAb TU-31 to γ-tubulin; immunoblot; endogenous proteins
Binder,binding [1],binding [2],binding [3]
B1,binds,–,–
B2,binds,–,–
B3,–,binds,binds
B4,–,binds,binds

# No constants are given. Whether binding was seen depends on the method and setting. Binding seen in cells or lysates may run through a third protein. Binding calls can cover weak binding; strength is not graded here. For part of these data: Tags and fused reporters may be left off the sequences shown.
